Results deposited as PubChem BioAssay AID1159578 (Peter MacCallum Cancer Centre, 2015).

Test: 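siRNA pools altering how lymphatic endothelial cells close a scratch wound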 (primary screen)
Cell system: human lymphatic endothelial cells
Reagents: siRNA pool against human genes, 40 nM
Timing: 48 h after transfection
Detection: 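High-content imaging of dye-stained cells in a scratch assay measures filled wound area and nuclei per well; duplicate means given as ratio to mock and robust z-score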
Direction: migration robust z-score: higher = faster migration into the scratch; nuclei per well: higher = more cells in the well
Rule for the call: 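Migration changed when robust z exceeds 2 or falls below -2 and mean nuclei number is at least 3300; otherwise not called changed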
Meaning of the calls: active = migration changed; inactive = no migration change, or too few cells
In all, the deposit lists about 18,000 reagents; shown is a part drawn at random. About 1,030 of them (5.7%) were called active. 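Inactive calls also include pools with fewer than 3300 nuclei, whose migration was not assessed.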 Raw values are not corrected between plates. Not all columns of the deposit are shown.

NUDT21 (GeneID 11051) scored migration robust z-score 1.18; migration class with cell-count check migration z between -2 and 2; enough cells; nuclei per well, duplicate mean 5260; inactive.
ERAP2 (GeneID 64167) scored migration robust z-score 1.76; migration class with cell-count check migration z between -2 and 2; enough cells; nuclei per well, duplicate mean 5174; inactive.
For PSMB6 (GeneID 5694) the deposit lists migration robust z-score -0.36; migration class with cell-count check migration z between -2 and 2; enough cells; nuclei per well, duplicate mean 3934; inactive.
With knock-down of CYP4F8 (GeneID 11283) the results were migration robust z-score 0.8; migration class with cell-count check migration z between -2 and 2; enough cells; nuclei per well, duplicate mean 7632; inactive.
Against DIP2B (GeneID 57609), the values are migration robust z-score 0.54; migration class with cell-count check migration z between -2 and 2; enough cells; nuclei per well, duplicate mean 5674; inactive.
With knock-down of ABT1 (GeneID 29777), the record shows migration robust z-score 0.1; migration class with cell-count check migration z between -2 and 2; enough cells; nuclei per well, duplicate mean 7188; inactive.
Against TMPPE (GeneID 643853) the deposit lists migration robust z-score 0.13; migration class with cell-count check migration z between -2 and 2; enough cells; nuclei per well, duplicate mean 6222; inactive.
With knock-down of PARL (GeneID 55486) the results were migration robust z-score 0.54; migration class with cell-count check migration z between -2 and 2; enough cells; nuclei per well, duplicate mean 7113; inactive.
OR6C2 (GeneID 341416) scored migration robust z-score -0.82; migration class with cell-count check migration z between -2 and 2; enough cells; nuclei per well, duplicate mean 4714; inactive.
After knock-down of RAB31 (GeneID 11031), the screen gave migration robust z-score 1.38; migration class with cell-count check migration z between -2 and 2; enough cells; nuclei per well, duplicate mean 4474; inactive.
For PSKH1 (GeneID 5681), the entry reads migration robust z-score -0.6; migration class with cell-count check migration z between -2 and 2; enough cells; nuclei per well, duplicate mean 5662; inactive.
With knock-down of ERCC6 (GeneID 2074), the record shows migration robust z-score -0.86; migration class with cell-count check migration z between -2 and 2; enough cells; nuclei per well, duplicate mean 5508; inactive.
